No constants are given. Whether binding was seen depends on the method and setting. In cells and extracts the contact can be indirect. Some binding calls cover weakened binding; strength is not graded here.
Target: T1, NLRP4E (mouse (endogenous in oocytes)) (UniProt Q66X19)
T1 sequence: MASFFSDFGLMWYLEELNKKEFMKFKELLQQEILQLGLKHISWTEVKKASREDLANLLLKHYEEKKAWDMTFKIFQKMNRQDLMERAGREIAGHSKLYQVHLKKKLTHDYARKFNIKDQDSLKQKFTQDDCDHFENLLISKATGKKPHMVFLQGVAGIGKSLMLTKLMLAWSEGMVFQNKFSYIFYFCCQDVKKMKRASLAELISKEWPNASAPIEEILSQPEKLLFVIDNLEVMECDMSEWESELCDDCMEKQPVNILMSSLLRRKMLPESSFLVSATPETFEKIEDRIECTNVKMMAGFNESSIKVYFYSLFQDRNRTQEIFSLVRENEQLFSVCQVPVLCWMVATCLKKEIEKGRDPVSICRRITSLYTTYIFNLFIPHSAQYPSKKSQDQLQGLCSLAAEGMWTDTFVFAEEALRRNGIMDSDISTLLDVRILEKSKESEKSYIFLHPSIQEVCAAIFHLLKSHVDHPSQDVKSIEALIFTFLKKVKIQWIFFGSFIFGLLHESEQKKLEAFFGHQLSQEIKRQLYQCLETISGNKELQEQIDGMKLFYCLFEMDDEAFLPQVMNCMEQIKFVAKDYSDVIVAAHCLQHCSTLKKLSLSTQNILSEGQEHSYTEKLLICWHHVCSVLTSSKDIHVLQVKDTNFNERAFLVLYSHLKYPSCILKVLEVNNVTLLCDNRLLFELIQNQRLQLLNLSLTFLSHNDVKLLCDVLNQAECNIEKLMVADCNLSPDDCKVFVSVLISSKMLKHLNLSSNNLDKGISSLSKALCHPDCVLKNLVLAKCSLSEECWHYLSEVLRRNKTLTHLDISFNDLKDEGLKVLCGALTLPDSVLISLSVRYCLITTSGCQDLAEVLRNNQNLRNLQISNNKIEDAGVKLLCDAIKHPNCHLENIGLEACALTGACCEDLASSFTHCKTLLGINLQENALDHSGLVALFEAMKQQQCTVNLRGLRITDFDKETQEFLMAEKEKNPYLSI
Assay: co-IP; antibody bound to protein A/G, incubated overnight at 4 °C with precleaned mouse oocyte lysate in IP buffer, washed three times, western blot; both proteins endogenous

binding: binds
B1: G protein-regulated inducer of neurite outgrowth 1 (GRIN1) (protein, UniProt Q3UNH4 1-932)
chain: MRDCCSSPKAIPAPPRHALDQSLGMDPRHTSSSGAAEGASCSERPAGSLACPSPNCSPLPETPRAHGALTSDNSGTTLFGKPEPMSSAEATPTASEIRNPVFSGKMDGNSLKQADSTSTRKEEAGSLRNEESMLKGKAEPMIYGKGEPGTVGRVDCTASGAENSGSLGKVDMPCSSKVDIVSPGGDNAGSLRKVETISSGKMDPKTENVMHSRRERPGSTGEGDLVSLRENDMKPPDNTDSASTKKTDPEFSGKLTPGSSGKTELVSSVTVAPVTSENVNPVCSGGAGPAAVGNSETLSSVKKDPQLLGKKEAVSSGEGGSVSVRMAETVSARQPEGMFPAKTDSTSSNSTGPSGRADPVSLRNSELVSPVKPERLSSGQAERVSLVKTETLSSGKEDPRSSRRVDHTTVTGNMQTSQKGNPESSGKTDLGSSSSGDTRSLGTWGSLSAAKAEVTEGKGDPQPWKKASLPASEKTDPLASSKAGSASQGKAETVSPGEVDAMTLGKTVPTSSGKTALVSPGKVDLMTSERAEGIPELQASEKGNPVNSTRVDTGATGSTEPKSGVKVITQIPGATSPGKVETPSLQKEQPQLSEKTDPSRKVDPPTTVEPVSLGKADSASPSPRKAESQTSAKTVPQAPDKATSSLRQSDGTPYSSAQPQRDTRSIGSLPEREPSASTSQKDLAAAAAQKSPSAEAAAPPPGPRTRDNFTKAPSWDAGAPPPREDAGTQAGAQACVSVAVSPMSPQDGAGGPAFSFQAAPRAPSPAPRPPSRRDAGLQVSLGAAETRSVATGPMTPQAAAPPAVPPVFPEVRVRPGSVLAAALAPQEATEPVRDVSWDEKGMTWEVYGASMEVEVLGMAIQKHLERQIEEHGRQGAPAPAPPPAVRAGPGRAGSVRTAPAEGAAKRPPGLFRALLQSVRRPRCCSRAGPTAE

Reference: PMC11088158
